Taken from: PubChem BioAssay AID686937 (Drosophila RNAi Screening Center, 2013)

Aim: 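Knock-downs that reduce output of a secreted reporter enzyme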 (primary screen)
Cell system: Drosophila S2 cells expressing secreted horseradish peroxidase
Knock-down reagent: long dsRNA against Drosophila genes
Timing: about 5.5 days (5 days dsRNA, then 12 h reporter induction)
Treatment: reporter expression induced after 5 days of dsRNA, read 12 h later; inducer not stated
Measured: 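After 5 days of dsRNA and 12 h of reporter induction, medium peroxidase read by chemiluminescence and scored as per-plate z-score; higher values mean more reporter released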
Direction: z-score: higher = more reporter secreted into medium
In all, the deposit lists about 23,000 reagents; this is a random part of those that have a named target and a result. 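Reduced-secretion tags in replicate 1 do not always agree with the z-scores; no criterion for assigning the tags was given.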 Reagents against one gene are numbered here. Names joined by + are all predicted targets of the reagent. Further read-outs or replicates are left out here. Not given: the amount of reagent.

gene knocked down,reagent no.,"z-score, replicate 1","z-score, replicate 2","z-score, replicate 3"
Csgalnact,1,0.2,0.02,
Gclc,1,0.21,0.66,
CG31601,1,0.2,0.28,
Mdr50,1,0.55,0.18,
Fsn,1,0.17,0.45,
CG30274,1,0.26,0.02,
CG13877 + pyx,1,0.43,0.21,
wbl,1,0.33,0.26,
CG7737,1,0.41,0.29,
crq,1,0.15,0.21,
CG7694,1,0.33,0.32,
CG15515,1,-0.16,0.17,
ND-19,1,0.22,0.02,0.2
CG18404,1,-2.4,-1.11,
CG5039,1,0.3,0.23,
kirre,1,0.27,0.36,
ArfGAP3,1,0.23,0.3,
CG9175,1,-2.09,-3.54,
CG6893,1,0.32,0.33,
prage,1,-0.09,0.14,
prage,2,-1.74,-2.02,
prage,3,0.42,0.45,
prage,4,0.13,0.38,
alka,1,0.44,0.32,
CG3448,1,0.07,0.3,
CG8545,1,0.08,0.37,
CaMKI,1,0.21,-0.11,
CG40191,1,-0.09,0.18,
Mis12,1,-0.64,-0.38,
Hrb87F,1,0.1,0.29,
Orcokinin,1,-0.26,0.3,
RnrL,1,-0.13,-0.26,
Skel,1,0.34,0.33,
Skel,2,0.48,0.46,
CheB74a,1,0.14,0.25,
CG7798,1,0.29,0.23,
Lsm11,1,0.07,0.12,
CG5235,1,0.26,0.19,
Rab2,1,0.16,0.07,
Cyp6a16Psi (retired record),1,-0.4,-0.33,
CG14797 + CG32809,1,0.24,0.29,
Cyp4d14,1,0.04,0.26,
Ugt50B3,1,0.47,,
Ugt50B3,2,0.16,,
Ugt50B3,3,-1.08,-0.91,
PIG-U,1,0.44,0.31,
CIA30,1,0.28,0.5,
DIP-theta,1,0.55,0.23,0.27
DIP-theta,2,0.68,0.5,
DIP-theta,3,0.23,0.46,
CG4660,1,0.29,0.25,
Npc2b,1,0.16,0.39,
stmA,1,0.58,,
stmA,2,0.43,0.55,
stmA,3,0.67,0.56,
CG5767,1,0.2,0.59,
Spn77Bb + Spn77Bc,1,0.42,0.19,
Spn77Bb + Spn77Bc,2,0.46,0.29,
not,1,0.34,0.32,
CG8229 + CG33199,1,-0.35,,
CG5180,1,0.14,0.5,
CG30391,1,-0.36,1.2,
myo,1,0.41,-0.01,
CG13506,1,0.37,0.58,
mRpL2,1,-0.27,0.18,
dmt,1,-2.15,-2.18,
CG3589,1,0.19,0.08,
Ae2,1,-1.43,0.53,
Ae2,2,0.01,-0.29,
park,1,0.09,0.03,
Ostgamma,1,-0.09,0.06,
CG9641,1,0.24,0.32,
CG17221,1,0.11,0.1,
ACXE,1,-0.2,-0.26,
GluClalpha,1,0.23,0.41,
SMC6,1,0.18,0.19,
Sec20,1,-1.66,-0.82,
borr,1,-1.64,-1.04,
Fas1,1,-0.17,0.04,
CG43121,1,0.31,0.38,
JTBR,1,0.25,0.2,
sesB,1,0.25,0.25,
CG12560,1,0.5,0.3,
CG43124,1,0.45,-0.46,
CG31917 + Tfb5,1,0.52,0.18,
CG31917 + Tfb5,2,0.08,0.55,
Syx8,1,0.49,0.35,0.18
Syx8,2,0.05,-0.31,
CG14050,1,0.18,0.17,
CG11367,1,-0.69,0.22,
Der-1,1,-0.07,0.17,
CG30281,1,0.29,0.35,
CG4318,1,0.34,0.16,
CG6927,1,0.27,0.42,
CG6912,1,0.09,0.36,
Actn,1,0.27,0.3,
Ugt303B3,1,0.44,0.19,
CG18302,1,0.14,-0.06,
Grip,1,-3.11,-2.21,
Grip,2,0.22,0.01,
VGAT,1,0.28,-0.03,
Acbp3,1,0.13,0.18,
Qsox2,1,0.42,0.23,
MYPT-75D,1,0.34,0.34,

16 entries already listed, sorted by “z-score, replicate 1”, ascending:
gene knocked down,reagent no.,"z-score, replicate 1","z-score, replicate 2","z-score, replicate 3"
CG11367,1,-0.69,0.22,
Der-1,1,-0.07,0.17,
Syx8,2,0.05,-0.31,
CG31917 + Tfb5,2,0.08,0.55,
CG6912,1,0.09,0.36,
CG14050,1,0.18,0.17,
JTBR,1,0.25,0.2,
sesB,1,0.25,0.25,
CG6927,1,0.27,0.42,
Actn,1,0.27,0.3,
CG30281,1,0.29,0.35,
CG4318,1,0.34,0.16,
CG43124,1,0.45,-0.46,
Syx8,1,0.49,0.35,0.18
CG12560,1,0.5,0.3,
CG31917 + Tfb5,1,0.52,0.18,
